These results are taken from paper PMC11339338.

Chains of the proteins cited; added tags and fusions are not shown.
UniProt Q86U44: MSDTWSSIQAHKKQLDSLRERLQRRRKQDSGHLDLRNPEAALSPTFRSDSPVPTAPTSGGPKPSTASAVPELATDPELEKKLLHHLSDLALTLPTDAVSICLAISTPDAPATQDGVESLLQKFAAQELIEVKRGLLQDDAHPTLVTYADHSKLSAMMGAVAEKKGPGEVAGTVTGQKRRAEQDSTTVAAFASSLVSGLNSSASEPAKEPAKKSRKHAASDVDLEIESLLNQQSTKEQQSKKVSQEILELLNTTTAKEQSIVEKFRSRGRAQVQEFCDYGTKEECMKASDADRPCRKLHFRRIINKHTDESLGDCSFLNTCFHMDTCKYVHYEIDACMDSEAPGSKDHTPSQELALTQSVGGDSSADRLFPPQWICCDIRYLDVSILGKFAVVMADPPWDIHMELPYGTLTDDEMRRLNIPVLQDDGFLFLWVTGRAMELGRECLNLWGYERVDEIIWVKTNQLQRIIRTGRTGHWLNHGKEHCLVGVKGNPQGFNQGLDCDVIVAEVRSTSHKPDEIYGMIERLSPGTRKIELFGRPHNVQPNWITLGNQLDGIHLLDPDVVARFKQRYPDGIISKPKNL
UniProt Q9H5I1: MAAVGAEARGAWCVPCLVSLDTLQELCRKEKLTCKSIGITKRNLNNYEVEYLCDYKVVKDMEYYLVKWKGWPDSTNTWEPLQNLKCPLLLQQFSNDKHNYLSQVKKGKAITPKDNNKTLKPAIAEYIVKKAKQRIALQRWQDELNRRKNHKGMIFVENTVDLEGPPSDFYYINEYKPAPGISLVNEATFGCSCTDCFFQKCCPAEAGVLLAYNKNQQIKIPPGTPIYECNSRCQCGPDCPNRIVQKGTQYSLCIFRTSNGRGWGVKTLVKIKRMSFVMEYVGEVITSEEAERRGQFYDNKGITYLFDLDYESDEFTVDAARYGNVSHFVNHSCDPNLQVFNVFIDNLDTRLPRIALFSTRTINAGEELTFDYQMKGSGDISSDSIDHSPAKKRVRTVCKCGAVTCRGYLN
UniProt Q16531: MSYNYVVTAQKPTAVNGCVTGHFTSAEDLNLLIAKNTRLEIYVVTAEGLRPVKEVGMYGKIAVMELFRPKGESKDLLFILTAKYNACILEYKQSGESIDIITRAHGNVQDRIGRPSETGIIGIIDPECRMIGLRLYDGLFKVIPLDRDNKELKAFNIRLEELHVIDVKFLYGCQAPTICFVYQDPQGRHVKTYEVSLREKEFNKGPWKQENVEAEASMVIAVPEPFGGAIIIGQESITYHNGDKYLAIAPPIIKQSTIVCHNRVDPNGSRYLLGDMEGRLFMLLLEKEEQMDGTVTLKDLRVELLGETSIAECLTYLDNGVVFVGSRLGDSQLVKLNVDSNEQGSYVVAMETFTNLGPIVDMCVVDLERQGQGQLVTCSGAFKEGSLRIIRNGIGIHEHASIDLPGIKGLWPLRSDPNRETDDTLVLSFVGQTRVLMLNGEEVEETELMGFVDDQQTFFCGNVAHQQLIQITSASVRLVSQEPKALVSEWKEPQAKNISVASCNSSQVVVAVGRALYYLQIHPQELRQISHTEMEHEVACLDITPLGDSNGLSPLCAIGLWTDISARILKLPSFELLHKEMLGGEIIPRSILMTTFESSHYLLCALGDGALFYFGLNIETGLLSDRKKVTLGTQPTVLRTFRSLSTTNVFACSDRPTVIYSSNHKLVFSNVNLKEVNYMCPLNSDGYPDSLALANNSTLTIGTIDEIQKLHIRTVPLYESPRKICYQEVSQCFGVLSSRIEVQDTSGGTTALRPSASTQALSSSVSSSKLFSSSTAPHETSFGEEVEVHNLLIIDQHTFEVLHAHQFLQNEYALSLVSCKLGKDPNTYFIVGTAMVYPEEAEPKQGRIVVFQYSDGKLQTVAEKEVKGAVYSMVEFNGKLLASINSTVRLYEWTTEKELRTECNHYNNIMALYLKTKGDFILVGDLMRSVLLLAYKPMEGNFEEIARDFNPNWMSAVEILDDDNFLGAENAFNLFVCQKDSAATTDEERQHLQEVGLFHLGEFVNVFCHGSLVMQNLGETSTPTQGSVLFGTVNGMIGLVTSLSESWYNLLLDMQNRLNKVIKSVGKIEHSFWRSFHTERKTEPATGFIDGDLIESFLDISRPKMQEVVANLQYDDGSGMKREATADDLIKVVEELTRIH

Test [1] has as its target METTL3 (human (endogenous in H1 hESCs)) (UniProt Q86U44). Briefly: FRET or BRET; acceptor photobleaching FRET (FRET-AB, Leica SP8 STED) on fixed immunostained cells; Alexa Fluor 488 donor, Alexa Fluor 568 acceptor. In general terms: In BRET a luciferase serves as donor, and the signal depends on an acceptor being close.
For test [2] the target is unchanged. Briefly: co-IP; anti-METTL3 antibody, protein A and G magnetic beads, whole cell extract of WT hESCs or METTL3−/− hESCs rescued by WT or mutant METTL3; 50 mM Tris-HCl pH 7.6, 150 mM KCl, 1 mM EDTA, 10% glycerol, 4 °C 16 h; also with RNase A treatment (interactions impaired).
For test [3], the target named is WT METTL3 (exogenous, in METTL3−/− hESCs rescued by WT METTL3) (UniProt Q86U44). The description is as above.
In the next test the target is T1, FLAG-tagged SUV39H1 (UniProt O43463).
T1 sequence: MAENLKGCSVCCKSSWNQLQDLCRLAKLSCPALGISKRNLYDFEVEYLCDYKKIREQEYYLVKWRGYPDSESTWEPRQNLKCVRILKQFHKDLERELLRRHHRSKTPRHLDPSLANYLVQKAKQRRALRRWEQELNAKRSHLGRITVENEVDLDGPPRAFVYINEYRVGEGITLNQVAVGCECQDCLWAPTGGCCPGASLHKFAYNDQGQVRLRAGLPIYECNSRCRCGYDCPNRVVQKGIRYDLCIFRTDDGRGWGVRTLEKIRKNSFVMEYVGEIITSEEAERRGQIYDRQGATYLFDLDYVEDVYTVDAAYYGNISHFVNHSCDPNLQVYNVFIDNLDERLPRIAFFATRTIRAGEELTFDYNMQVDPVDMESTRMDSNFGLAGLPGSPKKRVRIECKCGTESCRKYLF
Briefly: co-IP; 293T cells co-transfected with FLAG-SUV39H1 or FLAG-SUV39H2, MYC-ubiquitin and HA-METTL3; precipitated with anti-FLAG antibody, blots with anti-tag antibodies.

The target of the next test is FLAG-tagged SUV39H2 (UniProt Q9H5I1). The test is described as above.
Test [4] concerns the target DDB1 (human (endogenous in H1 hESCs)) (UniProt Q16531). Briefly: co-IP; anti-DDB1 antibody, protein A and G magnetic beads, whole cell extract of WT hESCs or METTL3−/− hESCs rescued by WT or mutant METTL3; 50 mM Tris-HCl pH 7.6, 150 mM KCl, 1 mM EDTA, 10% glycerol, 4 °C 16 h; also WT hESCs treated with Actinomycin D for 3, 9, 24 h (interaction impaired).
Test [5] shares this target. Briefly: FRET or BRET; acceptor photobleaching FRET (FRET-AB, Leica SP8 STED) on fixed immunostained cells; Alexa Fluor 488 donor, Alexa Fluor 568 acceptor.

No constants are given. Whether binding was seen depends on the method and setting. Binding seen in cells or lysates may run through a third protein. Some binding calls cover weakened binding; strength is not graded here. For part of these data: Where a sequence is shown, tags or fusion partners need not be part of it.

DDB1 (from UniProt Q16531 1-1140): the binding result in test [1], in test [2] and in test [3] was “binds” each time.

For “HA-tagged WT-METTL3 (from UniProt Q86U44 1-580)”, the binding result with FLAG-tagged SUV39H1 and with FLAG-tagged SUV39H2 was “binds” each time.

In the case of METTL3 (from UniProt Q86U44 1-580), the binding result in test [4] was “binds”.

As to SUV39H2 (from UniProt Q9H5I1 1-410), the binding entry in test [1], in test [2] and in test [3] was “binds” throughout.

For the molecule “WT METTL3 (exogenous, in METTL3−/− hESCs rescued by WT METTL3) (from UniProt Q86U44 1-580)”, the binding entry in test [4] is “binds”.

B1: SUV39H1 (protein, UniProt O43463 1-412)
chain: T1 sequence
As to B1, the binding entry in test [1], in test [2] and in test [3] was “binds” in each case.

B2: METTL14 (protein, UniProt Q9HCE5 1-456)
chain: MDSRLQEIRERQKLRRQLLAQQLGAESADSIGAVLNSKDEQREIAETRETCRASYDTSAPNAKRKYLDEGETDEDKMEEYKDELEMQQDEENLPYEEEIYKDSSTFLKGTQSLNPHNDYCQHFVDTGHRPQNFIRDVGLADRFEEYPKLRELIRLKDELIAKSNTPPMYLQADIEAFDIRELTPKFDVILLEPPLEEYYRETGITANEKCWTWDDIMKLEIDEIAAPRSFIFLWCGSGEGLDLGRVCLRKWGYRRCEDICWIKTNKNNPGKTKTLDPKAVFQRTKEHCLMGIKGTVKRSTDGDFIHANVDIDLIITEEPEIGNIEKPVEIFHIIEHFCLGRRRLHLFGRDSTIRPGWLTVGPTLTNSNYNAETYASYFSAPNSYLTGCTEEIERLRPKSPPPKSKSDRGGGAPRGGGRGGTSAGRGRERNRSNFRGERGGFRGGRGGAHRGGFPPR
For B2, the binding result in test [5] and in test [4] was “binds” in each case.
